# For at least one compound, name, drawing or mass did not settle the structure.
# Test system: asthmatic BAL macrophages
# Test: In vitro response to corticosteroids in the presence of bacteria, BAL macrophages (real time PCR)
# Assay type: cell-based, human
# Conditions: 10^−6 M DEX 3 h
smiles,measurement,setting,value
"C[C@@H]1C[C@H]2[C@@H]3CCC4=CC(=O)C=C[C@]4(C)[C@@]3(F)[C@@H](O)C[C@]2(C)[C@@]1(O)C(=O)CO [DEX, dexamethasone]",MKP-1 induction by dexamethasone (DEX),"BAL macrophages in the presence of H. parainfluenzae, p<0.05, FIG. 3D",significantly reduced
same,steroid sensitivity of BAL cells,"BAL macrophages in the presence of P. melaninogenica, FIG. 3D",remained steroid sensitive

# Reference: US20250003969A1, “METHODS TO IDENTIFY AND TREAT SUBJECTS HAVING CORTICOSTEROID-RESISTANT INFLAMMATORY DISEASES” (priority 2013, published 2025)
